Experimental data from article PMC10929186.
Results are given in words; binding and its absence hold for the method and conditions named. Binding seen in cells or lysates may run through a third protein. Some binding calls cover weakened binding; strength is not graded here.

Protein sequences, listed by entry. Tags and fused reporters are not part of them.
UniProt P14602: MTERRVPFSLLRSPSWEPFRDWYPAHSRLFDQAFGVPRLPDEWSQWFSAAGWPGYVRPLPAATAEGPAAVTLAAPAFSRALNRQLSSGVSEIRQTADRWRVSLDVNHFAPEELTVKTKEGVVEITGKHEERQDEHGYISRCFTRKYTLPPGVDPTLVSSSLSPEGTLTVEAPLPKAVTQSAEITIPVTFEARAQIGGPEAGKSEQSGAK
UniProt P07356: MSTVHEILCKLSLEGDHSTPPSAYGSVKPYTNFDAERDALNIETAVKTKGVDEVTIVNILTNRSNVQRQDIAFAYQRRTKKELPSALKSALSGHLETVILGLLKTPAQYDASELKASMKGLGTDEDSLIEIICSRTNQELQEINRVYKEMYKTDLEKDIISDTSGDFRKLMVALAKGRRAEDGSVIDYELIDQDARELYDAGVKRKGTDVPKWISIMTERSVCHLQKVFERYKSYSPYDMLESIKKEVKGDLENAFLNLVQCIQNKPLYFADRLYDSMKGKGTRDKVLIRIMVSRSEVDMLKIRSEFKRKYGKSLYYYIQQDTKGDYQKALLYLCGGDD

Legend:
[1] = target: Hspb1 (mouse (endogenous in primary acinar cells and 266-6 cells)) (UniProt P14602); experiment: co-IP; endogenous proteins in lysate of isolated primary acinar cells treated with 100 nM caerulein or PBS for 6 hours; anti-Hspb1 or anti-Anxa2 antibody, Protein A/G agarose beads, Western blot
[2] = target: T1, Prdx1 (mouse (endogenous in primary acinar cells and 266-6 cells)) (UniProt P35700); experiment: co-IP; endogenous proteins in 266-6 cells; anti-Hspb1 antibody (ctrl siRNA group) or anti-Prdx1 antibody (ctrl and Hspb1 KO cells), Western blot
T1 sequence: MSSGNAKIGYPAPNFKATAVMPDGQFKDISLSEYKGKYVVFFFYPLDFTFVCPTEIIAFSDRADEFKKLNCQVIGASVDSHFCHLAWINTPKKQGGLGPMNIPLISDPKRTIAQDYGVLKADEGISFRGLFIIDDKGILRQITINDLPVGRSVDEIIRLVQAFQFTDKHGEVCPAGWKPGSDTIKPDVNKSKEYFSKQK

[3] = target: His-tagged Hspb1 (UniProt P14602); experiment: co-IP; HEK293T cells cotransfected with His-Hspb1 and HA-Anxa2 (or HA-Anxa2 truncation mutants) for 48 hours; anti-His or anti-HA antibody, Western blot

Substance	binding [1]	binding [2]	binding [3]
Anxa2 (from UniProt P07356 1-339)	binds	binds	
HA-tagged Anxa2 (from UniProt P07356 1-339)			binds
